Assay [1] addresses T1, HA-Kin17 (in 293T cells) (mouse) (UniProt Q8K339).
T1 sequence: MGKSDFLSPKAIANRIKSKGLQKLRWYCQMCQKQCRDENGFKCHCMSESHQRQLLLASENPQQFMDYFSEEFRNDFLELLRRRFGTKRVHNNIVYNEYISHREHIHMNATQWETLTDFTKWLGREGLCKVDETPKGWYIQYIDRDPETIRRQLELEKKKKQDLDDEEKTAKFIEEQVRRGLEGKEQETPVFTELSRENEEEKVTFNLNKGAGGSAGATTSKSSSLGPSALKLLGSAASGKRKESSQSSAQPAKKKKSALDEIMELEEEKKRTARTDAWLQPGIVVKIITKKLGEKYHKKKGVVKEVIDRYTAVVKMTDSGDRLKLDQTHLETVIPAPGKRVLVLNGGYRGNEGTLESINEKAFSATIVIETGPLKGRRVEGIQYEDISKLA
Kind of assay: co-IP; 293T cells co-transfected with HA-Kin17 and Flag-NCL; IP with anti-HA and blot with anti-Flag, or IP with anti-Flag and blot with anti-HA; cells crosslinked with 0.75% formaldehyde before lysis.

Chains of the proteins cited; added tags and fusions are not shown.
UniProt O35134: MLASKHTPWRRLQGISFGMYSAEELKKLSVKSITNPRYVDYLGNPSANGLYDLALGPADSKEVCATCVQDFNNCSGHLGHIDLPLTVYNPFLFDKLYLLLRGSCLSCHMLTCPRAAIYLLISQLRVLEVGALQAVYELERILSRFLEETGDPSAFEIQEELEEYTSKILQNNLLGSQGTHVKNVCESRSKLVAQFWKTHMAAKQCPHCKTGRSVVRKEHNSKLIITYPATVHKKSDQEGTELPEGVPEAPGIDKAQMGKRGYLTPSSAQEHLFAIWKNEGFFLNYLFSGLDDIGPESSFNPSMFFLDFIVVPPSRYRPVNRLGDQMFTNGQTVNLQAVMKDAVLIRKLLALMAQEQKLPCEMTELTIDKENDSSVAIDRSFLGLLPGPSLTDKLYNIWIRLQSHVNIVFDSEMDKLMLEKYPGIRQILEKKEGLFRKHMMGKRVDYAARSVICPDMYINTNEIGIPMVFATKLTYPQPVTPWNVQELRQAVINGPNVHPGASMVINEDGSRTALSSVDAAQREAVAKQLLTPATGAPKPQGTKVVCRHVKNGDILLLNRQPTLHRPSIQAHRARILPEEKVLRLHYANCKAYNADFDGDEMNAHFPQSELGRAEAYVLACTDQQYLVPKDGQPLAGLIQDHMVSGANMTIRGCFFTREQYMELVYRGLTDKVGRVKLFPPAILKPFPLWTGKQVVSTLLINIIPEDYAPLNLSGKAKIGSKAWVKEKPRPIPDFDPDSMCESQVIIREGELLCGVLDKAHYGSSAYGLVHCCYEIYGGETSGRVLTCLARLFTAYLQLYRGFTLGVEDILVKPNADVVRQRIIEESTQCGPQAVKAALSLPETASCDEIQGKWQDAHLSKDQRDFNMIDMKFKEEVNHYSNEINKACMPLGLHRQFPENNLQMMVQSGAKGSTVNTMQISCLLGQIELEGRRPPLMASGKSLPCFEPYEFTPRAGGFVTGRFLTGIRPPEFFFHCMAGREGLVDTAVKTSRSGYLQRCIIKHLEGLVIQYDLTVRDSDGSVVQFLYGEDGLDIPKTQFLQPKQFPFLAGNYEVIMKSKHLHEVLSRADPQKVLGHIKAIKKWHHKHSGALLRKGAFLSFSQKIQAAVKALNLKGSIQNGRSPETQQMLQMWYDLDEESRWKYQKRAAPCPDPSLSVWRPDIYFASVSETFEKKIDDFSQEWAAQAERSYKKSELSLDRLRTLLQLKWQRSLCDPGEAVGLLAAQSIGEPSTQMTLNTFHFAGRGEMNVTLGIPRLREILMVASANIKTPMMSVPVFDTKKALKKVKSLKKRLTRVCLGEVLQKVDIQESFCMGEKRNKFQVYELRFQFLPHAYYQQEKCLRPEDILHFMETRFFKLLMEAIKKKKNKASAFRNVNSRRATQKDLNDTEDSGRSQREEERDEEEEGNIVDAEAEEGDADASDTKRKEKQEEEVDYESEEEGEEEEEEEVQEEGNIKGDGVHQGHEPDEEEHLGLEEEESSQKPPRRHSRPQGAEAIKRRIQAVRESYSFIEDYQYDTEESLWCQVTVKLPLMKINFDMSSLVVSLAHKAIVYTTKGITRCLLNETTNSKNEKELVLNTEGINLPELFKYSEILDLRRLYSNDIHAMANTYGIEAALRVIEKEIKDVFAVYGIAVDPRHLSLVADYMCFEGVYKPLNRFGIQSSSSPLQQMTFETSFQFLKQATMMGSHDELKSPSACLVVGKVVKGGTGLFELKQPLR
UniProt P09405: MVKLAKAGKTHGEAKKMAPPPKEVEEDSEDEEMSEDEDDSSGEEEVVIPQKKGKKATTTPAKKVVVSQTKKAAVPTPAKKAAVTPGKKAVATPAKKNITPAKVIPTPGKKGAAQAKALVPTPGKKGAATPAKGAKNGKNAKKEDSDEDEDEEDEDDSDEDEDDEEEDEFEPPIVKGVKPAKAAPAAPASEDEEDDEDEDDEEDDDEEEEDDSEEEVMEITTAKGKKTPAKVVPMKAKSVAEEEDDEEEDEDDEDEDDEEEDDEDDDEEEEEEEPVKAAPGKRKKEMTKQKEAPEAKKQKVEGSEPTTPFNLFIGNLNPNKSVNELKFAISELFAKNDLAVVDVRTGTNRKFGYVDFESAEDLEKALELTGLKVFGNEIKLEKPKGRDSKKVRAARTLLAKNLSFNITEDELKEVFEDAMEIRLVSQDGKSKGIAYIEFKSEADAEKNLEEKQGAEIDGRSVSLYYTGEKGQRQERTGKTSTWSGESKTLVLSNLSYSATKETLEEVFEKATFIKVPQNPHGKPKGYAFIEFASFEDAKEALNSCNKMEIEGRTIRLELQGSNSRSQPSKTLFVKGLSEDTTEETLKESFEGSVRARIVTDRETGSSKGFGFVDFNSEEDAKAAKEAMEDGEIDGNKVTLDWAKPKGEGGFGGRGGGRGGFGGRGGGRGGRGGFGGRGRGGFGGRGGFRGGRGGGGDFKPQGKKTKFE

The target in assay [2] is T2, Kin17 (endogenous, mouse) (mouse (endogenous in neurospheres and cortex)) (UniProt Q8K339).
T2 sequence: T1 sequence
Put plainly: co-IP; endogenous proteins of the cortex of WT mice at E16.5; anti-Kin17 or anti-NCL antibody on protein A/G magnetic beads; immunoblot. A general note: In western blotting, separated proteins are transferred to a membrane and probed.

Assay [3] deals with T2, Kin17 (endogenous, mouse) (mouse (endogenous in neurospheres and cortex)). Put plainly: co-IP; endogenous proteins of mouse neurospheres; cells crosslinked with 0.75% formaldehyde, lysed (10 mM Tris-HCl pH 8.0, 1 mM EDTA, 10% glycerol, 0.5% NP-40, 0.25% Triton X-100), sonicated; antibody (anti-Kin17, anti-NCL or anti-Polr1a) on protein A/G magnetic beads, overnight 4 °C; immunoblot; in one experiment lysates treated with RNase A or control solvent.

In assay [4] the target is Polr1a (endogenous, mouse) (mouse (endogenous in neurospheres)) (UniProt O35134). Described as above.
Assay [5] concerns the target Nucleolin (NCL) (endogenous, mouse) (mouse (endogenous in neurospheres and cortex)) (UniProt P09405). Kind of assay: co-IP; endogenous proteins of the cortex of WT mice at E16.5; anti-Kin17 or anti-NCL antibody on protein A/G magnetic beads; immunoblot.
The target is the same in assay [6]. Kind of assay: co-IP; endogenous proteins of mouse neurospheres; cells crosslinked with 0.75% formaldehyde, lysed (10 mM Tris-HCl pH 8.0, 1 mM EDTA, 10% glycerol, 0.5% NP-40, 0.25% Triton X-100), sonicated; antibody (anti-Kin17, anti-NCL or anti-Polr1a) on protein A/G magnetic beads, overnight 4 °C; immunoblot; in one experiment lysates treated with RNase A or control solvent.

In assay [7] the target is T3, Flag tagged Prmt7 (mouse) (UniProt Q922X9).
T3 sequence: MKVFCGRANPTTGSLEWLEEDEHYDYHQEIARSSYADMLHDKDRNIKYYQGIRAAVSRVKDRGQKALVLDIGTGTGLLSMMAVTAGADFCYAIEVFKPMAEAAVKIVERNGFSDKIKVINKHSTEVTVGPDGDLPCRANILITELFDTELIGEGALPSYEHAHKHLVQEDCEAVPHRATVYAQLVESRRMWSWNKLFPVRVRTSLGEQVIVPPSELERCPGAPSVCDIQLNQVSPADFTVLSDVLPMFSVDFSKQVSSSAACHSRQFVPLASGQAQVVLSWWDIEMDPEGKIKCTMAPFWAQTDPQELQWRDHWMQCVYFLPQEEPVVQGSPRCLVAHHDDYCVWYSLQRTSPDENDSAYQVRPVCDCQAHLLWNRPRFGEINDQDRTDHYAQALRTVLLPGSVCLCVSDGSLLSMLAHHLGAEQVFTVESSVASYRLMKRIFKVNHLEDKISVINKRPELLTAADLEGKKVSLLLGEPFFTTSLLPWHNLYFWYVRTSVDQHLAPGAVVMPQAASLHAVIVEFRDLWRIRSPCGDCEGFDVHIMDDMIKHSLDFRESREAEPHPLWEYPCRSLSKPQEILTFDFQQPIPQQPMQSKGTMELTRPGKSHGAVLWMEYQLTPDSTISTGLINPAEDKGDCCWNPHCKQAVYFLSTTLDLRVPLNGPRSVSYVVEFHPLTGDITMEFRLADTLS
Kind of assay: co-IP; N2a cells transfected with HA-tagged WT Kin17 or R36K mutant along with Flag tagged Prmt7; IP with anti-Flag, blot with anti-HA.

Assay [8] deals with Full-length Flag-NCL (mouse) (UniProt P09405). Put plainly: co-IP; 293T cells co-transfected with HA-Kin17 and Flag-NCL; IP with anti-HA and blot with anti-Flag, or IP with anti-Flag and blot with anti-HA; cells crosslinked with 0.75% formaldehyde before lysis.

Results are given in words; binding and its absence hold for the method and conditions named. In cells and extracts the contact can be indirect. Some results given as binding are weak or reduced against the parent protein; the word gives no strength. For part of these data: Tags and fused reporters may be left off the sequences shown.

Regarding “Full-length Flag-NCL (from UniProt P09405 1-707)”, the binding entry in assay [1] is reported as “binds”.
As to “Nucleolin (NCL) (endogenous, mouse) (from UniProt P09405 1-707)”, the binding result in assay [2], in assay [3] and in assay [4] was “binds” throughout.

B1: Kin17 (endogenous, mouse) (protein, UniProt Q8K339 1-391)
chain: T1 sequence
In the case of B1, the binding result in assay [5], in assay [6] and in assay [4] was “binds” each time.

B2: HA-tagged WT Kin17 (in N2a cells) (protein, UniProt Q8K339 1-391)
chain: T1 sequence
Take B2: in assay [7], the binding entry was “binds”.

B3: HA-Kin17 (in 293T cells) (protein, UniProt Q8K339 1-391)
chain: T1 sequence
As for B3, the binding entry in assay [8] is recorded as “binds”.
